{
  "source": "patent US20110086911A1",
  "about": "“NOVEL BISMUTH(III) NSAID COMPOUNDS AND METHODS FOR THEIR USE” (Monash University, priority 2009, published 2011)",
  "key": {"[1]": {"experiment": "Release of free acid NSAID in 1M HCl", "format": "physicochemical", "conditions": "extraction into diethyl ether after 10-15 mins"}, "[2]": {"experiment": "Stability in solution by NMR", "format": "physicochemical", "conditions": "NMR solutions (d6-DMSO)"}},
  "note": "“Also recorded” adds a separate entry of the source. Some results were stated once for a whole list of compounds, not compound by compound. For at least one compound, name, drawing or mass did not settle the structure.",
  "data": [
    {"smiles": "O=C([O-])c1cc(-c2ccc(F)cc2F)ccc1O.O=C([O-])c1cc(-c2ccc(F)cc2F)ccc1O.O=C([O-])c1cc(-c2ccc(F)cc2F)ccc1O.[Bi+3]", "note": "[Compound 5, bismuth(III) tris-{2′,4′-difluoro-4-hydroxybiphenyl-3-carboxylate}]", "values": [
      {"measurement": "release of NSAID free acid from the complex", "setting": "[1]", "value": "gradually released; also recorded: near quantitative amounts"},
      {"measurement": "hydrolysis in solution by NMR spectral data", "setting": "[2]", "value": "no indication of facile hydrolysis"}
    ]}
  ]
}
